{"source": "patent US7812008B2", "about": "“9-substituted tetracyclines” (Wyeth LLC, priority 2005, dated 2010)", "assay_type_in_all_cases": "cell-based", "key": {"[1]": {"test_system": "E. coli GC2203 (ATCC Control)", "assay": "MIC broth microdilution, E. coli GC2203 (ATCC Control)", "settings": "MHBII, 18-22 hours at 35° C.", "method": "(§1) Methods for in Vitro Antibacterial Evaluation\n(§2) The minimum inhibitory concentration (MIC)\n(§3) Antimicrobial susceptibility testing. The in vitro activities of representative examples of antibiotics of the invention are determined by the broth microdilution method as recommended by the National Committee for Clinical Laboratory Standards (NCCLS) (1). Mueller-Hinton II broth (MHBII)(BBL Cockeysville, Md.) is the medium employed in the testing procedures. Microtiter plates containing serial dilutions of each antimicrobial agent are inoculated with each organism to yield the appropriate density (10^5 CFU/ml) in a 100 μl final volume. The plates are incubated for 18-22 hours at 35° C. in ambient air. […] NCCLS. 2000. Methods for Dilution Antimicrobial Susceptibility Tests for Bacteria That Grow Aerobically; Approved Standards: M7-A5, vol. 20. National Committe for Clinical Laboratory Standards, Wayne, Pa."}, "[2]": {"test_system": "E. faecalis GC2242 (Van-resistant)", "assay": "MIC broth microdilution, E. faecalis GC2242 (Van-resistant)", "settings": "MHBII, 18-22 hours at 35° C.", "method": "as §1, §2, §3"}, "[3]": {"test_system": "S. pneumoniae* GC4465 (Clinical)", "assay": "MIC broth microdilution, S. pneumoniae GC4465 (Clinical)", "settings": "18-22 hours at 35° C.", "method": "as §1, §2, §3"}}, "note": "Several values for one entry are separate records, joined by “and”; a condition that tells them apart may be missing. Identical values can stand only once. At least one read-out could not be matched to a standard name with certainty.", "data": [{"smiles": "CN(C)c1ccc(O)c2c1C[C@H]1C[C@H]3[C@H](N(C)C)C(O)=C(C(N)=O)C(=O)[C@@]3(O)C(O)=C1C2=O", "note": "[Minocycline, 7-(dimethylamino)-6-demethyl-6-deoxytetracycline, reference compound]", "values": [{"measurement": "minimum inhibitory concentration (MIC)", "setting": "[1]", "value": "1 and 0.50"}, {"measurement": "minimum inhibitory concentration (MIC)", "setting": "[2]", "value": "8 and 16"}, {"measurement": "minimum inhibitory concentration (MIC)", "setting": "[3]", "value": "<0.06 and 0.12"}]}]}
